Reference: patent US20060193893A1, “Medical devices” (ChemGenex Pharmaceuticals, Inc., priority 2005, published 2006)
For at least one compound, name, drawing or mass did not settle the structure.

Tested on: chorioallantoic membrane (CAM)
Test: Effects of homoharringtonine in the early chicken chorioallantoic membrane (CAM) assay
Type: in vivo
Method: Fertilized chicken eggs (HiChick Breeding Co, Kapunda, South Australia) were incubated for three days at 38° C. On Day 3 the embryos were cracked out of the egg and into a cup made of plastic piping, with plastic film stretched over the top to form a hammock for the egg to be suspended in. Two ml of DMEM containing penicillin and streptomycin was added to each cup prior to the egg being added. A Petri dish on the top maintained sterility. Incubation continued in a humidified 37° C. incubator.
On Day 4 the chorioallantoic membrane (CAM) begins to grow, and pictures were taken of each embryo at ×5 to measure the CAM area using image analysis software (Video Pro 32, Leading Edge Pty Ltd, South Australia). Embryos were then grouped according to their CAM area, with a control embryo in each for comparison. There were four matched embryos, treated with 6.25, 12.5 and 25 ng of homoharringtonine. Grouping is critical as in these early developmental stages changes in the CAM growth are dramatic. Relatively small differences in size on Day 4 translate to large differences in the CAM on Day 5, making it impossible to compare treatments. Substances were applied in methylcellulose discs, which were first dried under vacuum overnight. The methylcellulose discs were applied to the top of the CAM, and at the beginning of treatment were at least three to four-fold bigger than the CAM area, meaning treatment covered the entire CAM surface.
On Day 5 skim milk with contrast medium was injected into the CAM. Pictures were then taken at various levels of magnification up to ×63. Quantitative measurements were made from ×5 pictures. CAM area, and vein and artery lengths were measured using image analysis (Video Pro 32, Leading Edge Pty Ltd, South Australia). Relative vessel lengths were then calculated as the total length/CAM area. Statistical analysis was made using SigmaStat and OneWay ANOVA with p<0.05 as the level of significance.
FIG. 3A illustrates the normal organization of the CAM is uniform, with the major vein draining towards the left, and the artery branches coming over the edge of the top and bottom of the CAM. FIGS. 3B and 3C schematically illustrate tracing of the vein and artery branches, as performed for the measurement of vessel lengths.
The angiogenic inhibitor, homoharringtonine, was obtained from ChemGenex Therapeutics, Inc. (Menlo Park, Calif.) and was made to the appropriate concentration in sterile water. […] Homoharringtonine was applied at 6.25, 12.5 and 25 ng (11.3, 22.5 and 45 nM) doses, and compared with water treated controls. Homoharringtonine reduced the growth of the CAM to 42% of the control in the 25 ng treated CAM. […] The vein, artery and total vessel lengths were reduced to 15%, 18% and 17% of control, respectively.

For `COC(=O)C[C@](O)(CCCC(C)(C)O)C(=O)O[C@@H]1C(OC)=C[C@]23CCCN2CCc2cc4c(cc2[C@H]13)OCO4` [Homoharringtonine, cephalotaxine, 4-methyl-2-hydroxy-2-(4-hydroxy-4-methylpentyl) butanediocate ester], the “qualitative appearance of CAM vessels (FIG. 4)” value (12.5 ng) was “general reduction in vessels without a great deal of disturbance in the organization”, the “qualitative appearance of CAM vessels (FIG. 4)” value (25 ng) was “only fine vestigial blood vessels remaining, and blood vessel development almost completely blocked” and the “blood vessel development in the CAM (overall)” value (6.25-25 ng) was “significant reductions in blood vessel development in the CAM”. The “vessel lengths, significance vs control” value (6.25 and 12.5 ng treated groups) was “non significantly reduced vessel lengths” and the “qualitative changes at higher magnification (FIG. 5)” value (homoharringtonine 25 ng, taxol dose not given, vs water control) was “dramatic reduction in blood flow, with only a few fine vessels in the field carrying red blood cells”.
